# PubChem BioAssay AID504793 – Drosophila RNAi Screening Center, 2011
# Test: 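Genes required for cells to halt at G2/M after double-strand DNA breaks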 (primary screen)
# Cells: Drosophila S2R+ cells
# Reagent: long dsRNA against Drosophila genes, about 0.25 µg dsRNA per well
# Timing: 4 days of dsRNA, then 4 hours of drug before read-out
# Challenge: doxorubicin 0.5 µM for 4 hours to cause double-strand breaks, in cells also given a low, harmless dose of dsRNA against nbs to sensitise the assay
# Read-out: 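Per-well count of mitotic cells stained for phospho-histone H3 after doxorubicin exposure, used as mitotic index; counts are raw and not normalised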
# Reading the numbers: mitotic cells: higher = more cells in mitosis, weaker G2 arrest
# Rule for the call: 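Genes are called active only when high mitotic counts were reproduced with independent dsRNAs and mitosis was checked for delay without damage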
# Calls: active = confirmed in follow-up tests; inactive = not confirmed
# The deposit covers about 23,000 reagents; below is an unselected part of those with a known target gene and a result. Of all reagents, 62 (0.27%) are marked active. 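Calls come from follow-up tests whose scores are not deposited, so confirmed genes may have low counts here; counts are not normalised per plate.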 Raw values vary from plate to plate and are shown uncorrected. A plus sign joins genes that one reagent is predicted to hit. No sequences are given here.
"mitotic cells, replicate 1",Call,target gene,amplicon
4,inactive,CG13282,DRSC02254
11,inactive,Obp69a,DRSC11247
4,inactive,Obp69a,DRSC27681
7,inactive,Usp15-31,DRSC04426
4,inactive,Usp15-31,DRSC24986
8,inactive,dally,DRSC08954
5,inactive,dally,DRSC11338
1,inactive,ckd,DRSC08418
6,inactive,CG13856,DRSC14706
2,inactive,Vha14-2,DRSC12145
8,inactive,nAChRalpha5,DRSC01946
9,inactive,nAChRalpha5,DRSC01947
11,inactive,nAChRalpha5,DRSC22785
3,inactive,nAChRalpha5,DRSC29085
7,inactive,CG14086,DRSC10090
5,inactive,Or88a,DRSC16770
9,inactive,T48,DRSC16878
9,inactive,CG1894,DRSC15396
16,inactive,CG17192,DRSC15186
11,inactive,CG17192,DRSC24691
6,inactive,eIF3e,DRSC11199
11,inactive,CG11584,DRSC19408
6,inactive,CG11584,DRSC25623
9,inactive,PlexA,DRSC17220
7,inactive,Su(var)2-HP2,DRSC06204
3,inactive,Su(var)2-HP2,DRSC29542
4,inactive,CG9631,DRSC14137
8,inactive,CG42809 + CG42810,DRSC02532
6,inactive,CG42809 + CG42810,DRSC02533
4,inactive,Or43a,DRSC07485
4,inactive,CG18823,DRSC18168
15,inactive,Gyg,DRSC03850
3,inactive,Gyg,DRSC04556
3,inactive,Gyg,DRSC28959
6,inactive,CG13531,DRSC04173
3,inactive,Arr2,DRSC09670
8,inactive,Afti,DRSC16440
6,inactive,Afti,DRSC29272
4,inactive,Cyp12b2,DRSC07364
11,inactive,CadN,DRSC03286
6,inactive,CadN,DRSC27368
17,inactive,RpL18,DRSC11016
17,inactive,RpL18,DRSC22323
9,inactive,ND-B18,DRSC19947
3,inactive,ND-B18,DRSC27676

Laid out differently: entries from further up.
| mitotic cells, replicate 1 | Call | target gene | amplicon |
| --- | --- | --- | --- |
| 15 | inactive | Gyg | DRSC03850 |
| 3 | inactive | Gyg | DRSC04556 |
| 3 | inactive | Gyg | DRSC28959 |
| 6 | inactive | CG13531 | DRSC04173 |
